Measurements reported in PubChem BioAssay AID1224830 (NIAID, 2016)
Shown is a random part of about 18,000 reagents tested. In the full data, about 2,900 (16%) were called active. 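Calls are made per well; low scores hint the gene aids the LPS response, high scores that it dampens it.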 Entries without a mark were called inactive. Repeated entries: four replicate wells of each siRNA pool.

Screen: 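Genes whose knock-down alters the TNF-alpha reporter response to LPS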 (primary screen)
Cells: human THP-1 monocytic leukaemia cells, TNF dual-luciferase reporter clone, PMA-differentiated to macrophage-like cells
Reagents: siRNA pool against human genes, 50 nM
Timing: LPS for 4 h, given about 3 days after siRNA transfection
Conditions: bacterial LPS (TLR4 ligand), 10 ng/ml
Measured: 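TNF firefly reporter luminescence divided by renilla, normalised to the plate median, then turned into a robust z-score for each replicate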
Reading the numbers: TNF reporter robust z-score: higher = stronger TNF reporter response to LPS
Hit rule: 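Each well counts as active if its z-score is over 2.8 or under -1.5; controls are left without a call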

gene,TNF reporter robust z-score
NUTM1,-0.36
NUTM1,0.66
NUTM1,0.31
NUTM1,1.12
TRIM7,0.83
TRIM7,0.71
TRIM7,-1.11
TRIM7,0.31
TIMP4,1.32
TIMP4,1.2
TIMP4,-0.15
TIMP4,1.21
CDK2AP2,0.19
CDK2AP2,0.7
CDK2AP2,0.93
CDK2AP2,1.26
BORA,0.88
BORA,-0.32
BORA,6.53 (active)
BORA,-0.56
ZRSR2,1.18
ZRSR2,1.6
ZRSR2,1.27
ZRSR2,1.71
ADGRL2,-0.77
ADGRL2,-0.25
ADGRL2,-0.58
ADGRL2,4.17 (active)
TLE4,0.19
TLE4,-0.14
TLE4,-0.13
TLE4,-0.5
PRAM1,-0.13
PRAM1,0.51
PRAM1,-0.24
PRAM1,0.75
PRKG1,-0.73
PRKG1,-0.65
PRKG1,0.45
PRKG1,0.21
STYXL2,-0.12
STYXL2,0
STYXL2,0.88
STYXL2,1.25
ZNF304,0.48
ZNF304,-0.44
ZNF304,-0.91
ZNF304,0.05
DMPK,-0.14
DMPK,-0.8
DMPK,-1.51 (active)
DMPK,-0.44
MEPCE,-1.94 (active)
MEPCE,-1.89 (active)
MEPCE,-1.52 (active)
MEPCE,-1.01
CNOT1,0.45
CNOT1,-0.6
CNOT1,4.21 (active)
CNOT1,0.69
OR51I1,-1.42
OR51I1,-1.44
OR51I1,-1.29
OR51I1,-0.99

No new results follow: entries from further up.
gene,TNF reporter robust z-score
ZNF304,0.05
DMPK,-0.14
DMPK,-0.8
DMPK,-1.51 (active)
DMPK,-0.44
MEPCE,-1.94 (active)
MEPCE,-1.89 (active)
MEPCE,-1.52 (active)
MEPCE,-1.01
CNOT1,0.45
CNOT1,-0.6
CNOT1,4.21 (active)
CNOT1,0.69

Additional results:
gene,TNF reporter robust z-score
TANGO2,3.05 (active)
TANGO2,2.69
TANGO2,2.15
TANGO2,0.08
MPV17L,-1.25
MPV17L,-0.23
MPV17L,0
MPV17L,-0.11
KCNK3,-0.16
KCNK3,1
KCNK3,0.16
KCNK3,2.6
TRPC7,-0.68
TRPC7,-0.79
TRPC7,-1.31
TRPC7,-0.65
TBC1D31,0.26
TBC1D31,0.16
TBC1D31,0.59
TBC1D31,0.45
TMEM230,-0.97
TMEM230,-0.99
TMEM230,-0.67
TMEM230,-0.91
SLC30A3,0.03
SLC30A3,0.65
SLC30A3,0.08
SLC30A3,1.75
OLR1,0.28
OLR1,0.04
OLR1,0.52
OLR1,1.14
CNNM2,-0.73
CNNM2,-0.24
CNNM2,-0.7
CNNM2,0
SLC35B2,0.72
SLC35B2,1.69
SLC35B2,1.78
SLC35B2,1.68
OR52H1,-0.61
OR52H1,0.01
OR52H1,-0.33
OR52H1,0.18
BASP1,0.55
BASP1,0.76
BASP1,-0.23
BASP1,0.35
